Test results reported in paper PMC12218279.
These are yes or no findings as the source states them, for the method shown. Binding seen in cells or lysates may run through a third protein. A result given as binding can be weak or reduced; the word gives no strength. Sequences can lack the tags named with a protein.

Target: T1, PfFBOX01-HA (P. falciparum) (UniProt C6KT37)
T1 sequence: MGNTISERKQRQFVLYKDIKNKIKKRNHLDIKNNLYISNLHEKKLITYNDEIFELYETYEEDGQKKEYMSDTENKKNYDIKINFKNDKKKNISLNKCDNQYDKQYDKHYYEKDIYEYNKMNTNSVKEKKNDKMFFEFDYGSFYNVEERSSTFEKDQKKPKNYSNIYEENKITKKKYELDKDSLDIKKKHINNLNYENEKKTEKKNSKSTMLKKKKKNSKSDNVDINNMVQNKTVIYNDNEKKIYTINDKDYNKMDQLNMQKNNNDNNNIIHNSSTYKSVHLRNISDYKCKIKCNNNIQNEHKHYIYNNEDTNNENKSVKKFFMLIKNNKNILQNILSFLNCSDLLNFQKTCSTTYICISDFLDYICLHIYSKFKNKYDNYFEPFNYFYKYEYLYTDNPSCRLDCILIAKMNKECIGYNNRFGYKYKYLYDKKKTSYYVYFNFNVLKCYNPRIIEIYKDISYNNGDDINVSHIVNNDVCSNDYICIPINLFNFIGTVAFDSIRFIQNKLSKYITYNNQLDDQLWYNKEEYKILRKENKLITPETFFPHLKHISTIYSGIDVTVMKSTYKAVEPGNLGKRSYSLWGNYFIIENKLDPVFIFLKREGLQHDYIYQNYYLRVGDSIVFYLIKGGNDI
Experiment: co-IP; immunoprecipitation of PfFBOX01-HA from schizonts that also carry a C-terminally FLAG-tagged candidate substrate; immunoblot (Fig. S5 and S13)

PF3D7_0903600.1 tagged at the C-terminus with FLAG epitopes (P. falciparum)
binding: binds
